Results are given in words; binding and its absence hold for the method and conditions named. A result given as binding can be weak or reduced; the word gives no strength.
Target: TaVAMP723-3B (Triticum aestivum (wheat))
Experiment: two-hybrid; MatchMaker Y2H system (Clontech); BD fusions in pGBKT7, AD fusions in pGADT7; both orientations; ten-fold serial dilutions spotted on SD/-Leu-Trp and SD/-Leu-Trp-Ade-His, 30 °C, 4 days

binding: binds
Substance: TaSYP137-5B (from UniProt A0A3B6LHZ2)
